Test results: PubChem BioAssay AID624246 (National Center for Advancing Translational Sciences (NCATS), 2012)
About 100 (0.027%) of roughly 370,000 compounds were called active. Inconclusive means that the source gave no clear call. Such entries were picked first, then a sample of the others. Calls follow the shape of the dose curve; as a rule, active = well fitted inhibition curve with a large enough effect in the polarisation, with a control signal flat; inconclusive = small, poorly fitted or top-dose-only effect, or effect the other way, or a change in a side signal; inactive = no such curve, though single readings can be large or run the other way; the % refers to the polarisation. Potencies of inconclusive entries are doubtful fits and often do not repeat. “Side channel” marks fits to a control or component signal instead of the main read-out.

Amino acid sequences for entries named in this document (tags omitted). A change or cut given only in a name is not applied to a line headed by its entry.
UniProt P11308: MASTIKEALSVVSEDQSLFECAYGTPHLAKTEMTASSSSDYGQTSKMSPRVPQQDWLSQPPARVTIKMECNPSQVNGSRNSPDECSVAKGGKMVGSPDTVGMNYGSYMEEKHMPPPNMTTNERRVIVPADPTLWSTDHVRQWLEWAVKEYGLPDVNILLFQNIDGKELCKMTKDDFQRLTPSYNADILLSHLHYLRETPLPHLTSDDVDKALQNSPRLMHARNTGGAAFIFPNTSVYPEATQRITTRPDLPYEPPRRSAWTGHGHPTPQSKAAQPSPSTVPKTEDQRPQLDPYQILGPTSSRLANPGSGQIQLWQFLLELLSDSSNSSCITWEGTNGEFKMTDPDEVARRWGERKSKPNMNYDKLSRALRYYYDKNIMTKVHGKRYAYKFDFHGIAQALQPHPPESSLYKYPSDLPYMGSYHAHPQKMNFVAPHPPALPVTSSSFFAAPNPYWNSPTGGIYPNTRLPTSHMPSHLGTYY

molecular target: Transcriptional regulator ERG (Homo sapiens) (UniProt P11308); assay: qHTS for Small Molecule Inhibitors of the ERG Ets/DNA interaction; settings: fluorescence polarization, His-ERG Ets domain / labelled DNA; series mostly up to 76.9 µM
Method in brief: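 His-tagged ERG Ets domain (1 uM in the protein solution; 300mM KCl, 50mM Tris-HCl, 1mM EDTA, 1mM DTT, pH 7.5) received compound, then a probe mix of 5 nM fluorescein-DNA and 100nM Texas-615-DNA. Fluorescence polarization was read for both dyes.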
Potency is read from the fitted curve at half-maximal effect.

Question: With `COC(=O)NC(=C(Cl)Cl)P(=O)(c1ccccc1)c1ccccc1` as the molecule, how does the Potency read?
Answer: The Potency was inconclusive: 50.1 µM [inhibitor, partial curve, poor fit].

Question: For `O=C1NC(=O)C(=Cc2ccc(Sc3ccccc3)o2)C(=O)N1`, which Potency is on record?
Answer: Its Potency is inconclusive: 31.6 µM [fluorescent, side channel, single point].

Question: Which Potency does the source give for `Cc1cccc(N2C(=O)NC(=O)/C(=C/c3ccc([N+](=O)[O-])o3)C2=O)c1` here?
Answer: The Potency was inconclusive: 25.1 µM [fluorescent, partial curve, poor fit].

Question: How did the Potency turn out when `Cc1ccc(C=C2C(Cl)=C(Cl)C(Cl)=C2Cl)cc1` was run?
Answer: The Potency was “inactive”.

Question: With `C[C@]12CC[C@H]3[C@@H](CC[C@]4(O)C[C@@H](O)CC[C@]34C=O)[C@@]1(O)CC[C@@H]2C1=CC(=O)OC1` as the molecule, how does the Potency read?
Answer: The Potency was inconclusive: 50.1 µM [inhibitor, single point].

Question: How did the Potency turn out when `N#Cc1cccc(NC(=O)CSc2nc3c(cc2C#N)N2CCC3CC2)c1` was run?
Answer: The Potency was inconclusive: 50.1 µM [quencher, side channel, single point].

Question: `CN1[C@@H]2CCC[C@H]1CC(=O)C2` was tested. Which Potency did it give?
Answer: The Potency was inconclusive: 28.2 µM [inhibitor, partial curve].

Question: `COc1ccc(N2C(=O)/C(=C/c3cccs3)C(=O)NC2=S)cc1` was tested. Which Potency did it give?
Answer: Its Potency is inconclusive: 4.47 µM [fluorescent, side channel, full curve, poor fit].

Question: Which Potency does the source give for `O=C(CN1CC=C(c2ccccc2)CC1)Nc1c(Cl)cccc1Cl` here?
Answer: The Potency was “inactive”.

Question: With `C[C@@H]1O[C@@H](O[C@H]2C[C@@H](O)[C@]3(CO)[C@H]4[C@H](O)C[C@]5(C)[C@@H](C6COC(=O)C6)CC[C@]5(O)[C@@H]4CC[C@]3(O)C2)[C@H](O)[C@H](O)[C@H]1O` (some centres undefined) as the molecule, how does the Potency read?
Answer: The Potency was inconclusive: 8.91 µM [inhibitor, single point].

Question: `CNCCc1ccc(O)c(O)c1` was tested. Which Potency did it give?
Answer: The Potency was inconclusive: 50.1 µM [inhibitor, single point].

Question: `COC[C@H]1OC(=O)c2coc3c2[C@@]1(C)C1=C(C3=O)[C@@H]2CCC(=O)[C@@]2(C)C[C@H]1OC(C)=O` was tested. Which Potency did it give?
Answer: Its Potency is inconclusive: 22.4 µM [inhibitor, partial curve, poor fit].

Question: For `C[N+]1(C)C2CC(OC(=O)C(CO)c3ccccc3)CC1C1OC12` (centres undefined), which Potency is on record?
Answer: Its Potency is inconclusive: 50.1 µM [inhibitor, single point].

Question: `CN1C(=O)C(=Cc2ccc(Sc3ccccc3)o2)C(=O)N(C)C1=O` was tested. Which Potency did it give?
Answer: Its Potency is inconclusive: 17.8 µM [fluorescent, side channel, partial curve].

Question: Which Potency does the source give for `O=[N+]([O-])c1cc(O)c(O)c([N+](=O)[O-])c1` here?
Answer: The Potency was inconclusive: 11.2 µM [inhibitor, single point].

Question: `Cc1ccc(NC(=O)C2CCCN2S(=O)(=O)c2ccc3c(c2)CCCC(=O)N3)cc1Cl` (centres undefined) was tested. Which Potency did it give?
Answer: The Potency was inconclusive: 25.1 µM [quencher, side channel, partial curve, poor fit].

Question: Which Potency does the source give for `Cc1nn(Cc2ccccc2Cl)c(C)c1C(=O)OCC(=O)N1CC(C)OC(C)C1` (centres undefined) here?
Answer: Its Potency is inconclusive: 28.2 µM [quencher, side channel, partial curve, poor fit].

Question: `C=Cc1cc(OC)c2c(c1)c(=O)oc1c2cc(OC)c2c(O)ccc(C3OC(C)C(O)C(C)(O)C3O)c21` (centres undefined) was tested. Which Potency did it give?
Answer: Its Potency is inconclusive: 3.55 µM [inhibitor, full curve, poor fit].

Question: `CCCCN1C(=O)/C(=C\c2ccco2)C(=O)N(CCc2ccccc2)C1=O` was tested. Which Potency did it give?
Answer: Its Potency is inconclusive: 50.1 µM [fluorescent, side channel, single point].

Question: How did the Potency turn out when `CCCCCCC[n+]1ccc(-c2cc[n+](CCCCCCC)cc2)cc1` was run?
Answer: Its Potency is “inactive”.

Question: With `Nc1ccc2nonc2c1[N+](=O)[O-]` as the molecule, how does the Potency read?
Answer: Its Potency is inconclusive: 35.5 µM [inhibitor, single point].

Question: For `COc1cc(C[C@@H](C)N)c(OC)cc1I`, which Potency is on record?
Answer: Its Potency is inconclusive: 7.94 µM [inhibitor, full curve, poor fit].

Question: `CCCCn1c(N)c(C(=O)OCCOC)c2nc3ccccc3nc21` was tested. Which Potency did it give?
Answer: The Potency was inconclusive: 7.94 µM [quencher, side channel, partial curve, poor fit].

Question: For `CC(C)c1ccc(N2C(=O)NC(=O)/C(=C/c3cnc(-c4ccccc4)nc3)C2=O)cc1`, which Potency is on record?
Answer: The Potency was “inactive”.
